Assay results reported in PMC10740027.

Chains of the proteins cited; added tags and fusions are not shown. Residues count along the entry.
UniProt Q10589, residues 1-161: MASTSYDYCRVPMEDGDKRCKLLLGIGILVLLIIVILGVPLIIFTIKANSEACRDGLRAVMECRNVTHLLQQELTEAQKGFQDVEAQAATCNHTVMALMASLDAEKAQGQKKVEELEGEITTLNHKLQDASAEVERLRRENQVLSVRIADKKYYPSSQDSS
UniProt P19474: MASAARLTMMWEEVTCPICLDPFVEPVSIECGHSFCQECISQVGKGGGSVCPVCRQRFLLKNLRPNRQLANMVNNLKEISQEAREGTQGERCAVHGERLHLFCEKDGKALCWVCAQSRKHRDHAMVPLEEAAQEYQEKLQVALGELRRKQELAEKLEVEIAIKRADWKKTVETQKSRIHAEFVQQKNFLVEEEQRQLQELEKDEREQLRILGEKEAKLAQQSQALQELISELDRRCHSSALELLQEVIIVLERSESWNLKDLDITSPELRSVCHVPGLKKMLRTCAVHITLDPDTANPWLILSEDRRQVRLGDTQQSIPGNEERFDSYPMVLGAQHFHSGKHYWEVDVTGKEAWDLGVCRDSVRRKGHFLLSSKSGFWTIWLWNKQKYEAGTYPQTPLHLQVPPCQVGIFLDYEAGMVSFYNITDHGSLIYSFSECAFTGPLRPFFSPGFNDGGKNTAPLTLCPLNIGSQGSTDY

T1: Ubiquitin Conjugating Enzyme E2O (UBE2O) (human (endogenous in HCCLM3, Hep-3B, Huh-7)) (UniProt Q9C0C9)
T1 sequence: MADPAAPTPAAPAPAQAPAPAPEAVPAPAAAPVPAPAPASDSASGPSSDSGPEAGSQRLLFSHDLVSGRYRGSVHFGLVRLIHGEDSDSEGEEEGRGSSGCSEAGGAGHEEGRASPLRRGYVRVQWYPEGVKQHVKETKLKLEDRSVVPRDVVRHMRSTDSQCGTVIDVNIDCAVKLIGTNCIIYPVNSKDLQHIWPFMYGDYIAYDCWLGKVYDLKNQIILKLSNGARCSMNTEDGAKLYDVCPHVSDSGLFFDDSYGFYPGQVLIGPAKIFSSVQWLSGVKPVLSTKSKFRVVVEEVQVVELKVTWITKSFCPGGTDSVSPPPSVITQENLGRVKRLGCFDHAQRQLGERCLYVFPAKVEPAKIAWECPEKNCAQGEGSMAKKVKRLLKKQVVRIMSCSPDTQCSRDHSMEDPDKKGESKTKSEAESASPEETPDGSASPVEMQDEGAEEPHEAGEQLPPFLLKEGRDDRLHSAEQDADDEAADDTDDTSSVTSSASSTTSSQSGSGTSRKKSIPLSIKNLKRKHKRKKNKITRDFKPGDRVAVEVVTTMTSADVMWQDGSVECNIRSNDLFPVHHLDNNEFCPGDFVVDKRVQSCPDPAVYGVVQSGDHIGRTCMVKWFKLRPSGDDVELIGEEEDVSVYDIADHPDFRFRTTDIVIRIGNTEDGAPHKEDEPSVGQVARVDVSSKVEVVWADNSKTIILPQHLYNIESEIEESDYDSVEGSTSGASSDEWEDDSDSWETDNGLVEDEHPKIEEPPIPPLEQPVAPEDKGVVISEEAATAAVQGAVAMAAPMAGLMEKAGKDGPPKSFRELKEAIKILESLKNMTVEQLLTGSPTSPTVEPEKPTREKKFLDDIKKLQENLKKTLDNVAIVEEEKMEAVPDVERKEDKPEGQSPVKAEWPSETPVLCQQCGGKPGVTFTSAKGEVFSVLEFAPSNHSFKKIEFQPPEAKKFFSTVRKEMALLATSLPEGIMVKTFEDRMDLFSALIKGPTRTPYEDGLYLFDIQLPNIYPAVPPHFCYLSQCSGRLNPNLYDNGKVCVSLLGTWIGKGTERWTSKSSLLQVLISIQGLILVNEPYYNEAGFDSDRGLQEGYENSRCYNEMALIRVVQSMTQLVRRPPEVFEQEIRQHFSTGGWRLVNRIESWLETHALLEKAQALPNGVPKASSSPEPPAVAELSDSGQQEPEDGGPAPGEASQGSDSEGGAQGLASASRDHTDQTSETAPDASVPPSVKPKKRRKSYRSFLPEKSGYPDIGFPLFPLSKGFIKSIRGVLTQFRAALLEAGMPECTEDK


The molecules below were run against T1, Ubiquitin Conjugating Enzyme E2O (UBE2O) (human (endogenous in HCCLM3, Hep-3B, Huh-7)) (assay: affinity purification with mass spectrometry; immunoprecipitation in HCCLM3 cells with an anti-UBE2O antibody (anti-rabbit IgG as control), samples analysed by mass spectrometry).

| binding | Molecule |
| --- | --- |
| binds | BST2 (from UniProt Q10589 1-161) |
| binds | TRIM21 (from UniProt P19474 1-475) |
| binds | interferon-induced protein with tetratricopeptide repeats 3 (IFIT3) (protein, UniProt O14879 1-490) MSEVTKNSLEKILPQLKCHFTWNLFKEDSVSRDLEDRVCNQIEFLNTEFKATMYNLLAYIKHLDGNNEAALECLRQAEELIQQEHADQAEIRSLVTWGNYAWVYYHLGRLSDAQIYVDKVKQTCKKFSNPYSIEYSELDCEEGWTQLKCGRNERAKVCFEKALEEKPNNPEFSSGLAIAMYHLDNHPEKQFSTDVLKQAIELSPDNQYVKVLLGLKLQKMNKEAEGEQFVEEALEKSPCQTDVLRSAAKFYRRKGDLDKAIELFQRVLESTPNNGYLYHQIGCCYKAKVRQMQNTGESEASGNKEMIEALKQYAMDYSNKALEKGLNPLNAYSDLAEFLETECYQTPFNKEVPDAEKQQSHQRYCNLQKYNGKSEDTAVQHGLEGLSISKKSTDKEEIKDQPQNVSENLLPQNAPNYWYLQGLIHKQNGDLLQAAKCYEKELGRLLRDAPSGIGSIFLSASELEDGSEEMGQGAVSSSPRELLSNSEQLN |

No constants are given. Whether binding was seen depends on the method and setting. In cells and extracts the contact can be indirect. Here binding means that the protein was enriched with, or labelled near, the bait; the list need not be complete.
